Experimental data published in patent US20050214282A1.

Target: T1, Brn3 (Brn3a/Brn3b, endogenous Brn3 activity) (Mus musculus) (UniProt P17208)
T1 sequence (limits assumed): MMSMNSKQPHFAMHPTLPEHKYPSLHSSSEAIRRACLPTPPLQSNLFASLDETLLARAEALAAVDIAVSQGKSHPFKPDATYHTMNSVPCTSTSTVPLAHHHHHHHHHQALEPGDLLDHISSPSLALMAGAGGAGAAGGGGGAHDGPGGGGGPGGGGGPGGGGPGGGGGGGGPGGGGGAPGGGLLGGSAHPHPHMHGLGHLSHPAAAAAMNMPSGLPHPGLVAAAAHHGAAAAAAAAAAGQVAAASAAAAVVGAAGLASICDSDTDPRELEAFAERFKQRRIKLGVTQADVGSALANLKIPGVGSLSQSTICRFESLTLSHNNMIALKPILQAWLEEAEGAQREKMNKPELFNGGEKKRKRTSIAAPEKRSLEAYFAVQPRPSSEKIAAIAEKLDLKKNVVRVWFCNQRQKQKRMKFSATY
Test: activity in cells
Details: transfected decoy almost completely abolished RANKL-induced Brn3 binding activity in nuclear extracts; protein in cells; protein details: endogenous, RANKL-stimulated RAW264.7 cells

Sequence: CACAGCTCATTAACGCGC (double strand) [Brn3 decoy oligonucleotide]
- activity on this sequence: active

Construct, isoform or probe ends are uncertain for at least one entry. Tags and fusion partners may be left off the protein sequences shown.
